Data as given in publication PMC5289615.

By UniProt entry, the sequences of proteins in these tests, tags left out.
UniProt Q27497: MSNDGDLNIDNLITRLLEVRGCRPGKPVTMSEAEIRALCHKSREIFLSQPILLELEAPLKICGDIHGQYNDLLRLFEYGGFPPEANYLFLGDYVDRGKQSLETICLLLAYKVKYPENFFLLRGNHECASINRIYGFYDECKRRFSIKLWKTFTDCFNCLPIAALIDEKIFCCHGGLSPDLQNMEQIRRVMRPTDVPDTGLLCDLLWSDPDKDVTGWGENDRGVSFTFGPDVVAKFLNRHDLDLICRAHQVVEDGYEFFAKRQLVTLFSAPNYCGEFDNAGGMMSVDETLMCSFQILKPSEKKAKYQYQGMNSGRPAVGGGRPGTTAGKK
UniProt P48727: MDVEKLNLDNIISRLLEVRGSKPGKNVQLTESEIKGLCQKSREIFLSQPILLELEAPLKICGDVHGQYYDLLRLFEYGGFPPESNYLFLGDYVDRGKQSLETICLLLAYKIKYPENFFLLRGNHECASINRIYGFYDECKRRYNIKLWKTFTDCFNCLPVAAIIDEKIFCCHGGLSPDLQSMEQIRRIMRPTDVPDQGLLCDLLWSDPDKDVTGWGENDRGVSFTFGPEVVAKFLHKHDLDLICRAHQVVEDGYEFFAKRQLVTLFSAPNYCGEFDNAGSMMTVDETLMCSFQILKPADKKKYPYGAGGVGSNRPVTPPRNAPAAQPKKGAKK

B1: SDS-22 (C. elegans leucine-rich repeat PP1 regulator) (protein, UniProt P45969 1-326)
chain: MSNDKSAEVVVLPRENDEESKEPVLKNQFDLSTFDIDSPEIDLTHTRADHIPDLTGFPKIEELRMRNNLLVSISPTISSLVTLTSLDLYENQLTEISHLESLVNLVSLDLSYNRIRQINGLDKLTKLETLYLVSNKIEKIENLEALTQLKLLELGDNRIKKIENIGHLVNLDELFIGKNKIRQLEGVETLQKLSVLSLPGNRIVKIENVEQLNNLKELYLSDQGLQDIHGVEPLTNLLLLDVANNEIKTFSGVERLESLNDFWANDNKVESFSEIEQLSKLKGLQTVYLERNPFYFNDTNQYRRKVMMTLTQVTQIDATTCRKPIE
B2: ZYG-1 (C. elegans homolog of Plk4) (enzyme, UniProt Q9GT24 1-706)
chain: MSGGKSGSRLSAYSHLKEIGKGGFGVVYAAQRENGEKVAIKRIDKKVPKNRVWTEIQTMKELKKSKYVVEFYEDFVEDGYTYIVMELCEGGSLQAYVREHGALDDATAVHVLRQLISAVSFMHRVNVIHRDLSAGNVFIKDSKKKKMTVKLGDFGLATTLGRGETTCTIVGTPGFIAPQVYDQEYTQSADVYSLGAVLYTMLTARNPPPKGLPPTCGMSPNAARLVEQMMDTDAKKRIPLTQIVLSEFMYENTNENAVIFSREHSRDGRRQRSREPVRSSRDDRSRDGRALIRSSSQPAHSGRAPLSNRPIHDRMPSTSSRGFDSERGRERDRDSGRGTVPPSREDRNRSQLWPIRMDRLEGQRVCTAGGRYIVELDTRCRFEVAAQGNFVKRILIVEVDEMVQTVYVHRIPDRTVRGRNGEEELITLTNNPFVYTSYSQMPKEVQNDYMRLQKMVAVTISGRVAKVTFRRPSQFPDAQAQLMENGDLRIKLPRSVIVRKMDNGEIFNCIDGIATQKQAVSGITLTKVNEVYKYLIRFEQCLNGMDRGMVCFPIVFSAGTNMVGSSPSSLMPSGSSQTSRFPFSNLSNNQPSLVPHSAPFLTKPTSSQRASSANVQRRVSTDENSSPSVAPSKYKIKIDPTTQKVRSIQATDGRVLRCSTSKADQFIFTDPAIRPDDQRFMRTDRVPDRASEMLHTLCERMRKLHQ

Experiments:
[1] = target: PP1β^GSP-1 (C. elegans PP1 catalytic subunit, PP1β homolog) (C. elegans (endogenous in N2 worms)) (UniProt Q27497); assay: co-IP; endogenous proteins immunoprecipitated from N2 whole worm extracts (1.6 mg total protein) with 10 ug antibody on Dynabeads Protein A, 4°C; washed in worm lysis buffer (50 mM HEPES pH 7.4, 1 mM EGTA, 1 mM MgCl2, 100 mM KCl, 10% glycerol, 0.05% NP-40); western blot; control IgG
[2] = target: I-2^SZY-2 (C. elegans homolog of inhibitor-2, regulator of protein phosphatase 1) (C. elegans (endogenous in N2 worms)) (UniProt Q9N537); assay: as above

Row | Molecule | binding [1] | binding [2]
1 | I-2^SZY-2 (C. elegans homolog of inhibitor-2, regulator of protein phosphatase 1) (from UniProt Q9N537) | binds | –
2 | PP1β^GSP-1 (C. elegans PP1 catalytic subunit, PP1β homolog) (from UniProt Q27497 1-329) (enzyme) | – | binds
3 | PP1α^GSP-2 (C. elegans PP1 catalytic subunit, PP1α homolog) (from UniProt P48727 1-333) (enzyme) | – | binds
4 | B1 | – | no binding
5 | B2 | – | no binding

No constants are given. Whether binding was seen depends on the method and setting. In cells and extracts the contact can be indirect. Binding can be weak; no strength is given.
